The text below walks through data of the odorant receptor screen of Mainland et al. (2015).

Where “and” joins values, the source holds several entries; their conditions need not be identical. Identical values can stand only once. The list shows a part of the results. Each value is one well over the wells without odorant, computed here; the data are noisy.

Some test systems named below: OR8G5 clone 1493; OR8H1 clone 1388; OR8H3 P137S clone 1215; OR8I2 clone 1213; OR8J1 Y120C clone 1500; OR8J3 clone 1149; OR8K1 clone 1431; OR8K3 L122R clone 1195; OR8K5 clone 1150.
Common to all, as to assay: odorant receptor activation (CRE luciferase / Renilla) (fold of no-odor wells); higher = more activation
What all share (details): 100 µM

Experiment [1] relates to OR8H2 A105V/I154M/V158L/Y169C/D170Y/Y259H/V284M clone 1214.

For `CC/C=C\CCO` [cis-3-hexen-1-ol], the odorant receptor activation came to 0.834 in the experiment with OR8G5 clone 1493; 0.222 with OR8H1 clone 1388; 0.909 in experiment [1]; 0.977 in the experiment with OR8H3 P137S clone 1215; 0.847 in the experiment with OR8I2 clone 1213; 1.27 in the experiment on OR8J1 Y120C clone 1500. Moreover, the odorant receptor activation was found to be 1.16 in the experiment on OR8J3 clone 1149, 0.136 in the experiment with OR8K1 clone 1431, 1.06 in the experiment on OR8K3 L122R clone 1195 and 0.839 with OR8K5 clone 1150.
Regarding `COc1ccccc1O` [guaiacol], the odorant receptor activation was 1.01 and 1.34 in the experiment with OR8G5 clone 1493; 0.714 in the experiment on OR8H1 clone 1388; 1.08 in [1]; 0.934 with OR8H3 P137S clone 1215; 1.27 in the experiment on OR8I2 clone 1213; 0.659 and 0.975 in the experiment on OR8J1 Y120C clone 1500. Moreover, the odorant receptor activation worked out at 0.986 with OR8J3 clone 1149, 0.916 in the experiment on OR8K1 clone 1431, 0.846 in the experiment with OR8K3 L122R clone 1195 and 1.06 with OR8K5 clone 1150.
`CC(C)=CCCC(C)=CC=O` [citral]: the odorant receptor activation in the experiment on OR8G5 clone 1493 is 0.901; in the experiment with OR8H1 clone 1388, 0.261; in [1], 0.925; in the experiment on OR8H3 P137S clone 1215 it was 1.03; with OR8I2 clone 1213 it was 0.889; with OR8J1 Y120C clone 1500, 1.41. Moreover, the odorant receptor activation came out at 1.27 in the experiment on OR8J3 clone 1149, 0.164 in the experiment with OR8K1 clone 1431, 1.28 in the experiment on OR8K3 L122R clone 1195 and 1.11 with OR8K5 clone 1150.
On to `C=CCc1ccc(O)c(OC)c1` [eugenol], for which the odorant receptor activation in the experiment on OR8G5 clone 1493 was 1.58 and 0.902 and 1.17; in the experiment with OR8H1 clone 1388, 1.96 and 1.09; in [1], 2.75 and 1.36; with OR8H3 P137S clone 1215, 2.33 and 1.43; in the experiment on OR8I2 clone 1213 it was 1 and 1.17; with OR8J1 Y120C clone 1500 it was 1.84 and 1.04 and 1.35. The odorant receptor activation was 2.01 and 1.27 in the experiment on OR8J3 clone 1149; 1.69 and 1.31 in the experiment on OR8K1 clone 1431; 3.55 and 1.59 with OR8K3 L122R clone 1195; 1.14 and 1.02 in the experiment with OR8K5 clone 1150.
As for `CCCCCC(=O)O` [caproic acid], the odorant receptor activation in the experiment with OR8G5 clone 1493 came to 1.01; with OR8H1 clone 1388, 0.209; in [1], 0.887; in the experiment on OR8H3 P137S clone 1215 it was 1.05; with OR8I2 clone 1213 it was 0.842; in the experiment with OR8J1 Y120C clone 1500, 1.04. The odorant receptor activation in the experiment on OR8J3 clone 1149 turned out to be 1.05; in the experiment with OR8K1 clone 1431, 0.112; in the experiment with OR8K3 L122R clone 1195, 1.07; in the experiment on OR8K5 clone 1150, 0.887.
As for `CC(C)CC(=O)O` [isovaleric acid], the odorant receptor activation came out at 1.12 with OR8G5 clone 1493; 1.02 with OR8H1 clone 1388; 1.1 in [1]; 1.46 in the experiment on OR8H3 P137S clone 1215; 1.35 with OR8I2 clone 1213; 0.915 in the experiment on OR8J1 Y120C clone 1500. In addition, the odorant receptor activation with OR8J3 clone 1149 was determined as 1.12; with OR8K1 clone 1431, 0.829; in the experiment with OR8K3 L122R clone 1195, 1.12; in the experiment on OR8K5 clone 1150, 1.03.
`CCCCCCCOC(C)=O` [heptyl acetate]: the odorant receptor activation was 1.11 and 1.22 in the experiment on OR8G5 clone 1493; 0.939 in the experiment on OR8H1 clone 1388; 0.838 in [1]; 0.851 in the experiment with OR8H3 P137S clone 1215; 1.06 in the experiment on OR8I2 clone 1213; 0.628 and 1.09 in the experiment on OR8J1 Y120C clone 1500. The odorant receptor activation was found to be 1.08 in the experiment on OR8J3 clone 1149, 1.03 with OR8K1 clone 1431, 1.03 with OR8K3 L122R clone 1195 and 0.821 in the experiment with OR8K5 clone 1150.
Regarding `CC(C)CCC(=O)O` [4-methylvaleric acid], the odorant receptor activation stood at 0.976 in the experiment with OR8G5 clone 1493; 1.11 in the experiment with OR8H1 clone 1388; 0.686 in experiment [1]; 0.69 in the experiment with OR8H3 P137S clone 1215; 0.919 in the experiment on OR8I2 clone 1213; 0.802 with OR8J1 Y120C clone 1500. Also, the odorant receptor activation with OR8J3 clone 1149 amounted to 1.06; in the experiment with OR8K1 clone 1431, 0.674; with OR8K3 L122R clone 1195, 1.19; with OR8K5 clone 1150, 0.88.
Turning to `CC(C)(C)c1ccc(CCC=O)cc1` [bourgeonal], the odorant receptor activation in the experiment with OR8G5 clone 1493 amounted to 1.04; in the experiment on OR8H1 clone 1388 it was 0.132; in [1], 0.53; in the experiment on OR8H3 P137S clone 1215 it was 0.694; in the experiment with OR8I2 clone 1213, 0.633; with OR8J1 Y120C clone 1500, 1.11. Further, the odorant receptor activation came to 0.813 with OR8J3 clone 1149, 0.118 in the experiment on OR8K1 clone 1431, 0.787 with OR8K3 L122R clone 1195 and 0.618 with OR8K5 clone 1150.
In the case of `O=C1CCCCCCCCCCCC(=O)OCCO1` [ethylene brassylate], the odorant receptor activation turned out to be 1.18 in the experiment on OR8G5 clone 1493; 1.55 with OR8H1 clone 1388; 1.56 in experiment [1]; 1.19 in the experiment on OR8H3 P137S clone 1215; 1.63 in the experiment with OR8I2 clone 1213; 1.2 in the experiment on OR8J1 Y120C clone 1500. In addition, the odorant receptor activation in the experiment with OR8J3 clone 1149 amounted to 1.44; with OR8K1 clone 1431, 1.67; in the experiment on OR8K3 L122R clone 1195, 2.1; in the experiment on OR8K5 clone 1150, 1.75.
On to `CC12CCC(C1)C(C)(C)C2=O` (stereo not given) [fenchone], for which the odorant receptor activation was found to be 0.95 in the experiment on OR8G5 clone 1493; 0.795 in the experiment with OR8H1 clone 1388; 1.13 in [1]; 0.957 in the experiment with OR8H3 P137S clone 1215; 1.18 with OR8I2 clone 1213; 1.43 in the experiment on OR8J1 Y120C clone 1500. Moreover, the odorant receptor activation was found to be 0.927 in the experiment with OR8J3 clone 1149, 0.998 in the experiment on OR8K1 clone 1431, 1.4 in the experiment with OR8K3 L122R clone 1195 and 0.891 in the experiment on OR8K5 clone 1150.
Take `COC(=O)c1ccccc1O` [methyl salicylate]: the odorant receptor activation was determined as 0.902 with OR8G5 clone 1493; 1.34 in the experiment on OR8H1 clone 1388; 0.731 in experiment [1]; 0.84 with OR8H3 P137S clone 1215; 1.47 in the experiment on OR8I2 clone 1213; 1.19 with OR8J1 Y120C clone 1500. In addition, the odorant receptor activation is 0.748 with OR8J3 clone 1149, 1.19 in the experiment on OR8K1 clone 1431, 0.803 in the experiment on OR8K3 L122R clone 1195 and 0.962 in the experiment on OR8K5 clone 1150.
Turning to `CC(=O)c1ccccc1` [acetophenone], the odorant receptor activation was 1.14 and 0.654 in the experiment with OR8G5 clone 1493; 1.09 in the experiment with OR8H1 clone 1388; 1.15 in experiment [1]; 1.27 with OR8H3 P137S clone 1215; 1.26 with OR8I2 clone 1213; 1 and 0.712 in the experiment with OR8J1 Y120C clone 1500. Further, the odorant receptor activation in the experiment with OR8J3 clone 1149 was 1.34; with OR8K1 clone 1431, 1.14; in the experiment with OR8K3 L122R clone 1195, 0.88; in the experiment on OR8K5 clone 1150, 1.13.
